Measurements reported in PubChem BioAssay AID602196 (INSERM, 2012)
Assay: 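Genes whose knock-down alters cisplatin killing of lung cancer cells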. Cells: human A549 lung cancer cells. Reagent: siRNA pair against human genes. Timing: 48 h transfection before cisplatin; time from cisplatin to read-out not stated. Conditions: cisplatin at a dose killing half of control-siRNA cells; exact dose and duration not given. Measurement: 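Cisplatin cell death as a shift from the 50% death seen with control siRNA; siRNAs toxic or growth-blocking alone scored 0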. Scale: two-siRNA summed score (-2 to +2): higher = both siRNAs protect from cisplatin killing; -2 means both sensitise. Active means: 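siRNAs harmful alone (LDH or WST-1) get 0; others get +1 for less and -1 for more cisplatin killing; genes are active when the two siRNAs give the same sign, summing to ±2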. Meaning of the calls: active = both siRNAs shift cisplatin killing the same way; inactive = no consistent shift, or siRNA harmful alone.
The whole screen tested about 23,000 reagents; shown is a part drawn at random. Of all reagents, 455 (2%) got an active call. 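Active includes both protection and sensitisation; some change values fall well beyond the stated -50 to +50 range.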 Unmarked entries are inactive. Reagents against one gene are numbered here. Further read-outs or replicates are left out here. No sequences are given here. Not given: the amount of reagent.

With knock-down of SKIC2 the results were two-siRNA summed score (-2 to +2) = 1.
DNAJB6 showed two-siRNA summed score (-2 to +2) = 0.
For PITPNM2, the entry reads two-siRNA summed score (-2 to +2) = 0.
With knock-down of PCED1A the results were two-siRNA summed score (-2 to +2) = 0.
For AIFM2 the deposit lists two-siRNA summed score (-2 to +2) = 1.
Depletion of RHOG came out at: two-siRNA summed score (-2 to +2) = 1.
For LINC01785, the entry reads two-siRNA summed score (-2 to +2) = 0.
Knock-down of INPP5J resulted in: two-siRNA summed score (-2 to +2) = 2 (active).
With knock-down of SRSF2P1, the record shows two-siRNA summed score (-2 to +2) = 1.
With knock-down of LOC442091 the results were two-siRNA summed score (-2 to +2) = 1.
PLEKHM2 gave two-siRNA summed score (-2 to +2) = 0.
SPTA1 scored two-siRNA summed score (-2 to +2) = 0.
LOC391276 gave two-siRNA summed score (-2 to +2) = 1.
After knock-down of LOC391075, the record shows two-siRNA summed score (-2 to +2) = 0.
After knock-down of GPR82, the screen gave two-siRNA summed score (-2 to +2) = 1.
After knock-down of PKD1L1, the record shows two-siRNA summed score (-2 to +2) = 1.
Knock-down of EPYC gave: two-siRNA summed score (-2 to +2) = 0.
BLM showed two-siRNA summed score (-2 to +2) = 0.
SLC2A6 scored two-siRNA summed score (-2 to +2) = 0.
Silencing of HAX1 #1 gave: two-siRNA summed score (-2 to +2) = 0.
HAX1 #2 showed two-siRNA summed score (-2 to +2) = 1.
For SNHG11, the values are two-siRNA summed score (-2 to +2) = 1.
SRBD1 gave two-siRNA summed score (-2 to +2) = 0.
After knock-down of CYB5R1 the results were two-siRNA summed score (-2 to +2) = -1.
MINDY4 showed two-siRNA summed score (-2 to +2) = 0.
CCNG1 gave two-siRNA summed score (-2 to +2) = 0.
With knock-down of LOC441089, the screen gave two-siRNA summed score (-2 to +2) = 0.
For LOC391205, the entry reads two-siRNA summed score (-2 to +2) = 0.
With knock-down of VDAC1, the record shows two-siRNA summed score (-2 to +2) = -1.
Against LOC441085 the deposit lists two-siRNA summed score (-2 to +2) = 0.
With knock-down of UBE2D2 the results were two-siRNA summed score (-2 to +2) = 0.

4 neighbouring reagents from above, for reference:
SKIC2 | two-siRNA summed score (-2 to +2): 1
DNAJB6 | two-siRNA summed score (-2 to +2): 0
PITPNM2 | two-siRNA summed score (-2 to +2): 0
PCED1A | two-siRNA summed score (-2 to +2): 0
